Results: patent publication WO2013084504A1

Chains of the proteins cited; added tags and fusions are not shown. Lines headed by an entry give the natural chain unless they say otherwise; changes in a name come on top.
UniProt O75787: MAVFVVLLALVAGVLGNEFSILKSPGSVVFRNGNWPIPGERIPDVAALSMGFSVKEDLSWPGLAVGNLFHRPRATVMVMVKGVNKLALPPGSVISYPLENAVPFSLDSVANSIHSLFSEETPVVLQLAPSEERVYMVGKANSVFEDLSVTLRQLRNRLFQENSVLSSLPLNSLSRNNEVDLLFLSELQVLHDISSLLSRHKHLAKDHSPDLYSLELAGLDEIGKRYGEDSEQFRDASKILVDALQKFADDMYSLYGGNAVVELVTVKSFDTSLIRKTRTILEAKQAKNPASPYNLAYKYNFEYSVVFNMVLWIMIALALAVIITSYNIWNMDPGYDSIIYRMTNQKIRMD

What was measured:
[1] = biological target: human soluble (pro)renin receptor, s(P)RR (human) (UniProt O75787); assay: immunoprecipitation from transfectant supernatant with protein G Sepharose, Western blot with 93A1B
[2] = biological target: human soluble (pro)renin receptor, s(P)RR (human) (UniProt O75787); assay: immunoprecipitation and immunoblot with 93A1B (FIG. 1C legend)
[3] = biological target: silkworm-derived recombinant human (P)RR-His tag protein (human); assay: sandwich ELISA of recombinant (P)RR added to plasma, serum or medium (recovery test)
[4] = biological target: human soluble (pro)renin receptor, s(P)RR (human) (UniProt O75787); assay: sandwich ELISA, PoAb-148 coated as capture, HRP-93A1B Fab' as detection

binding [1] | binding [2] | binding [3] | binding [4] | Binder
binds | binds | – | – | monoclonal antibody 93A1B produced by hybridoma Human pRR Hybridoma 93A1B (FERM BP-11510) (antibody, V domains shown) VH: EVKLVESGGGLVQPGGSLRLSCATSGFTFSDFYMEWVRQPPGKRLEWIAASRNKANDYTTEYSASVKGRFIVSRDTSQSILYLQMNALRAEDTAIYYCARDNWDGGFAYWGQGTLVTVSA VL: DIVMSQSPSSLAVSVGEKVTMSCKSSQSLLYSRNQKNYLAWYQQKPGQSPKLLIYWASTRESGVPDRFTGSGSGTDFTLTISSVKAEDLAVYYCQQYYSYPHMFGGGTKLEIK
– | – | binds | binds | horseradish peroxidase (HRP)-conjugated 93A1B mouse IgG Fab' (Fab, V domains shown) VH: EVKLVESGGGLVQPGGSLRLSCATSGFTFSDFYMEWVRQPPGKRLEWIAASRNKANDYTTEYSASVKGRFIVSRDTSQSILYLQMNALRAEDTAIYYCARDNWDGGFAYWGQGTLVTVSA VL: DIVMSQSPSSLAVSVGEKVTMSCKSSQSLLYSRNQKNYLAWYQQKPGQSPKLLIYWASTRESGVPDRFTGSGSGTDFTLTISSVKAEDLAVYYCQQYYSYPHMFGGGTKLEIK

These are yes or no findings as the source states them, for the method shown. Binding can be weak; no strength is given.
